In all, about 130,000 compounds went through this assay and about 1,000 (0.77%) were called active. Inconclusive means that the source gave no clear call. Such entries were picked first, then a sample of the others.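 How the source made its calls: active means activation at 2 µM above a set limit, confirmed on inspection of the cell images; inconclusive means above the set limit but not confirmed on image inspection; inactive means the rest.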
assay: activators of insulin promoter-driven GFP, primary screen, imaging, TRM-6 cells (human fetal islet line), eGFP reporter, cell count (AID 1296;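 further: share of cells whose green reporter signal exceeds an intensity cutoff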); details: at 2 µM, hits give high values, plate-scaled: unstimulated 0, stimulated control 100
In short: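 Material: TRM-6 insulin promoter–eGFP reporter cells. Buffer or medium: Low-glucose (5.5 mM) medium with tamoxifen. Probe or stimulus: tamoxifen at 0.75 µM added at seeding for reporter induction. Times: tamoxifen pre-incubation 15 h overnight, then compound exposure 48 h at 37 °C. Detection: high-content imaging of fixed cells with Hoechst nuclear stain.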

SMILES	activation
CCN1/C(=C/c2sc(-c3ccccc3C)c[n+]2C)Sc2ccccc21	inconclusive: 285%
Cc1cccc(CCNS(=O)(=O)c2ccc(S(=O)(=O)N3CCCCC3)cc2)c1	inconclusive: 400%
COc1cc(C2C(C#N)=C(N)Oc3cc(N(C)C)ccc32)cc2c1OCO2 (configuration not stated)	inconclusive: 127% [cytotoxic]
Cc1cc(C)n(Cc2ccc(NC(=O)c3ccc(COc4ccccc4Br)cc3)cc2)n1	inactive: 0%
Nc1nn(S(=O)(=O)c2cccc3nsnc23)cc1-c1ccc(Br)cc1	inconclusive: 86.1%
CCOC(=O)Nc1sc(C)c(C)c1C(=O)OCC	inactive: 0%
CON(C)c1nc(OCCNC(=O)OCc2ccc(Cl)cc2Cl)nc(N(C)C)n1	inconclusive: 129%
COc1ccc(Br)cc1C(=O)Nc1ccc(C(=O)O)cc1	active: 341%
Cc1sc2ncn(CC(=O)NCCCC(=O)N3CCN(c4ccccn4)CC3)c(=O)c2c1C	inconclusive: 164%
CC(=O)NS(=O)(=O)c1cccnc1Nc1cccc(Cl)c1	inconclusive: 183%
Cn1nc(C(=O)NCc2ccccn2)c2ccccc2c1=O	inactive: -20%
O=C(Cn1c(=O)sc2ccccc21)Nc1ccc(O)cc1	inactive: -7.14%
O=C(Nc1ccc(-c2nc3c(ccc4ccccc43)o2)cc1)c1ccco1	inconclusive: 429%
CCc1ccccc1Nc1cc(C(=O)NCc2ccccn2)c2ccccc2n1	inconclusive: 233%
COc1cc(C=O)ccc1OCCOCCOc1ccc(Cl)cc1Cl	inconclusive: 177% [cytotoxic]
CCOc1cc(CNCCCN2CCOCC2)ccc1OCC(=O)NC(C)(C)C	inactive: -5.56%
CNC(=O)CN(C1CCCCC1)S(=O)(=O)c1ccc(F)cc1	inconclusive: 500%
O=C(CN1CCN(c2ccc(Cl)cc2)CC1)Nc1ccc(F)cc1	inconclusive: 28.1%
O=c1c2ccccc2nc(SCc2nc3ccccc3s2)n1Cc1ccco1	inconclusive: 210%
Cc1cc(OCC(=O)O/N=C(\N)Cc2cccs2)ccc1Br	inconclusive: 133%
CCCc1c(CC)c(=N)c2ccccc2n1C	inactive: 3.23%
COCCN(Cc1cc2c(C)cc(C)cc2nc1Cl)C(=O)c1ccccc1F	inconclusive: 209%
Cc1ccc(CSC2=NCCN2C(=O)C(C)Oc2ccccc2)cc1 (configuration not stated)	inconclusive: 150%

2 successive entries from above, quoted:
SMILES	activation
Cc1cccc(CCNS(=O)(=O)c2ccc(S(=O)(=O)N3CCCCC3)cc2)c1	inconclusive: 400%
COc1cc(C2C(C#N)=C(N)Oc3cc(N(C)C)ccc32)cc2c1OCO2 (configuration not stated)	inconclusive: 127% [cytotoxic]

(listing goes on)

SMILES	activation
COc1ccc(-c2nc(N)n(C(=O)Cc3ccccc3)n2)cc1	inconclusive: 77.4% [cytotoxic]
COC(=O)c1ccccc1NC(=O)C(C)NS(=O)(=O)c1ccc(OC)cc1 (configuration not stated)	inconclusive: 400%
CC(C)C(=O)N1CCN(c2ccc(NC(=O)c3ccc([N+](=O)[O-])o3)cc2Cl)CC1	inconclusive: 669% [cytotoxic]
CCN1C(=O)CC(N2CCC(C(=O)N3CCOCC3)CC2)C1=O (configuration not stated)	inconclusive: 425%
Cc1nc(NC(=O)CCc2ccccc2)ccc1Br	inconclusive: 82.8%
CC(C)=C1C2CCC1C1C(=O)N(NC(=O)COc3ccc(Cl)c(C)c3)C(=O)C21 (configuration not stated)	inactive: 0%
NC1=NC(=O)C2(COC(c3ccncc3)OC2)S1 (configuration not stated)	inactive: 9.09%
CCOC(=O)N1CCN(C(=O)c2ccc(-n3c(=S)[nH]c4ccccc4c3=O)cc2)CC1	inconclusive: 406%
Cc1csc(NC(=O)c2cc3c(s2)CCCC3)n1	inconclusive: 76.3%
CCCOc1ccccc1C1CC(=O)Nc2cc3c(cc21)OCO3 (configuration not stated)	inconclusive: 525%
CC(=O)c1ccc(N2CCN(C(=O)CCCn3c(=S)[nH]c4cc5c(cc4c3=O)OCO5)CC2)cc1	active: 136%
CC(=O)c1cccc(NC(=O)/C=C/c2ccc([N+](=O)[O-])s2)c1	active: 614%
Nc1c(C(=O)Nc2nc3ccccc3s2)sc2nc(-c3cccs3)ccc12	active: 196%
Cc1ccnn1CCSCC(=O)O	inactive: 0%
CC(C)COc1ccc(C(=O)Nc2scc(-c3ccc(Cl)cc3Cl)c2C(N)=O)cc1	inconclusive: 177%
CCOC(=O)c1[nH]c(C)c(C(=O)OCC(=O)N(C)C2CCS(=O)(=O)C2)c1C (configuration not stated)	inactive: 0%
Cc1ccc(Sc2c(CO)c(-c3ccccc3)nn2C)cc1	inconclusive: 264% [cytotoxic]
COc1ccc(CSCC(=O)Nc2ccccc2SC)cc1	active: 367%
COc1cccc(N/C(N)=N/c2nc(CSc3ccccn3)cc(=O)[nH]2)c1	inconclusive: 464% [cytotoxic]
CCn1cc(-c2cc(C(=O)O)on2)c(C)n1	inconclusive: 223%
Cc1ccc(S(=O)(=O)Nc2c(C)n(C)n(-c3ccccc3)c2=O)cc1C(=O)NCc1ccccn1	active: 143%
Cc1ccc(NC(=O)CSCC(=O)NC2CCCCC2)cc1	inconclusive: 231%
CC(Oc1cccc(Cl)c1)c1ccnc2nc(/N=C/N(C)C)nn12 (configuration not stated)	inconclusive: 94.1%

SMILES	activation
O=c1c(-c2nc3ccccc3s2)cccn1Cc1ccccc1	inconclusive: 140%
COC(=O)C1=C(C)N(C2CCCCC2)C(=O)/C1=C\c1cccs1	inconclusive: 225%
O=C(Nc1nccc(-c2cccs2)n1)c1ccccc1Cl	inactive: -3.33%
NC(=O)C1(N2CCCCC2)CCN(C2CC(=O)NC2=O)CC1 (configuration not stated)	inconclusive: 538%
CC(C)(C)CNc1cc(N2CCCC2)ccc1[N+](=O)[O-]	inconclusive: 126%
Cc1ccn2cc(CSc3ccccc3N)nc2c1	inconclusive: 75%
CCOC(=O)COc1ccc(Br)cc1C1NC(=O)NC(C)=C1C(=O)NCc1ccccc1 (configuration not stated)	inconclusive: 136%
Cn1cnnc1SCC(=O)c1ccc2c(c1)OCCO2	inconclusive: 571%
CCCSCCCNC(=O)c1cc2c(s1)CS(=O)(=O)C2	inconclusive: 408%
CCc1ccc(S(=O)(=O)NCc2csc(-c3cccnc3)n2)s1	active: 857%
Cc1cc(C)c(/C=C(\C#N)C(N)=S)c(C)c1	inconclusive: 436%
Nc1ccccc1Nc1cc(-c2cccc(Cl)c2)nn1-c1ccccc1	inconclusive: 259%
O=C(O)C1C2C=CC(C2)C1C(=O)Nc1ccc(C(=O)N2CCCCC2)c(Cl)c1 (configuration not stated)	inactive: -9.33%
Cc1ccc(C2C(C#N)=C(N)Oc3c2sc2ccccc32)o1 (configuration not stated)	inactive: -7.69%
CC(C(=O)Nc1ccccc1C(=O)N1CCOCC1)N(c1ccc(Cl)cc1)S(C)(=O)=O (configuration not stated)	inconclusive: 289%
CC1CN(CN2C(=O)c3ccccc3C2=O)CC(C)O1 (configuration not stated)	inconclusive: 156%
N#CCc1ccc(NC(=O)/C=C/c2ccc([N+](=O)[O-])o2)cc1	inconclusive: 440%
Cc1ccc(-c2ccc(C(=O)O)c(C)n2)cc1	active: 386%
CN1CCC(OC(=O)COc2ccc(Cl)cc2Cl)CC1	active: 453%
COC(=O)c1ccccc1COn1c(=O)c[n+]([O-])c2ccccc21	inconclusive: 112%
Cc1oc(-c2cccc(F)c2)nc1CN1CCCCC1CCc1ccccn1 (configuration not stated)	inconclusive: 206%
CC1CCN(C(=O)C2CCN(CC(C)c3ccccc3)CC2)CC1 (configuration not stated)	inactive: 368%
Cc1ccc(S(=O)(=O)N2CCCC(C(=O)N3CCCc4ccccc43)C2)cc1 (configuration not stated)	inconclusive: 220%

Of the compounds above, 12 contain a thiophene ring, fused or not.
SMILES	activation
CCOC(=O)Nc1sc(C)c(C)c1C(=O)OCC	inactive: 0%
Cc1sc2ncn(CC(=O)NCCCC(=O)N3CCN(c4ccccn4)CC3)c(=O)c2c1C	inconclusive: 164%
Cc1cc(OCC(=O)O/N=C(\N)Cc2cccs2)ccc1Br	inconclusive: 133%
Cc1csc(NC(=O)c2cc3c(s2)CCCC3)n1	inconclusive: 76.3%
CC(=O)c1cccc(NC(=O)/C=C/c2ccc([N+](=O)[O-])s2)c1	active: 614%
Nc1c(C(=O)Nc2nc3ccccc3s2)sc2nc(-c3cccs3)ccc12	active: 196%
CC(C)COc1ccc(C(=O)Nc2scc(-c3ccc(Cl)cc3Cl)c2C(N)=O)cc1	inconclusive: 177%
COC(=O)C1=C(C)N(C2CCCCC2)C(=O)/C1=C\c1cccs1	inconclusive: 225%
O=C(Nc1nccc(-c2cccs2)n1)c1ccccc1Cl	inactive: -3.33%
CCCSCCCNC(=O)c1cc2c(s1)CS(=O)(=O)C2	inconclusive: 408%
CCc1ccc(S(=O)(=O)NCc2csc(-c3cccnc3)n2)s1	active: 857%
Cc1ccc(C2C(C#N)=C(N)Oc3c2sc2ccccc32)o1 (configuration not stated)	inactive: -7.69%

Following part

SMILES	activation
O=C1OC2CCC1(c1ccccc1)C2 (configuration not stated)	inconclusive: 514%
CN1CCN(C(=O)c2ccc3c(=O)n(CCc4ccccc4)c(=S)[nH]c3c2)CC1	inconclusive: 400%
Cc1nn(CCC(=O)NNC(=S)Nc2ccc(F)cc2)c(C)c1[N+](=O)[O-]	inconclusive: 407%
O=C(COC(=O)/C=C/c1ccc(Br)o1)NCCCN1CCCC1=O	inactive: 9.09%
CS(=O)(=O)Nc1ccc(C(=O)NCc2cccnc2)cc1	inconclusive: 479%
Cn1c(CNC(=O)Cc2ccc3c(c2)OCO3)nnc1SCc1ccccc1	inconclusive: 127%
CCC(NC(=O)c1ccc([N+](=O)[O-])cc1[N+](=O)[O-])c1ccccc1 (configuration not stated)	active: 80%
CCOC(=O)c1cccc(NC(=O)CSc2nnc(CNc3ccc(C)cc3)n2CC)c1	inactive: 0%
O=C(Nc1ncc2c(n1)-c1ccccc1OC2)c1ccc(Cl)cc1Cl	inconclusive: 148%
Nc1cc(=O)[nH]c(SCC(=O)Nc2ccc(S(=O)(=O)N3CCOCC3)cc2)n1	inconclusive: 77.8%
O=C(Cn1cnc2sc(-c3ccccc3)cc2c1=O)NCc1ccco1	inconclusive: 513%
Cc1ccc(C(=O)C(C)OC(=O)c2ccccc2[N+](=O)[O-])cc1 (configuration not stated)	inactive: 5.88%
CCc1ccccc1N1CC(C(=O)O)CC1=O (configuration not stated)	inactive: 194%
COC(=O)c1cc(NC(=O)c2ccccc2)c(=O)oc1/C=C/Nc1ccc(Oc2ccccc2)cc1	inconclusive: 767%
COc1ccc(C(=O)N[C@H](C(=O)Nc2ccc(OC)nc2)C(C)C)cc1	inconclusive: 82.1%
COc1ccc(NC(=O)C2CCCO2)cc1 (configuration not stated)	inconclusive: 129%
COc1cc2c(cc1OC)C(c1cc3ccccc3oc1=O)=NC(C)(C)C2	inconclusive: 456%
CCCNCC1C(Oc2ccc(Cl)cc2Cl)C(=O)N1c1cccc(C)c1C (configuration not stated)	inconclusive: 208%
COc1ccc([N+](=O)[O-])cc1NC(=O)CCc1ccccc1	inconclusive: 188%
CCCCNc1c2c3c(cccc3n(C)c1=O)C(=O)c1ccccc1-2	inconclusive: 433%
O=C(Cc1ccc(-n2c(=S)[nH]c3ccccc3c2=O)cc1)N1CCC(N2CCCCC2)CC1	inconclusive: 475%
CC(C)Oc1ccccc1C1CC(=O)Nc2cc3c(cc21)OCCO3 (configuration not stated)	inconclusive: 86.8%
CCCCCCCCCCCCCCCCn1cc[n+](C)c1	inconclusive: 124%

— PubChem BioAssay AID1296 (Columbia University Molecular Screening Center, 2008)
